Data published in PubChem BioAssay AID2685 (National Center for Advancing Translational Sciences (NCATS), 2010).
Out of some 320,000 compounds screened, about 2,100 (0.66%) were called active. The shares of active, inactive and inconclusive entries below differ from those in the screen. Calls follow the shape of the dose curve; as a rule, active = well fitted inhibition curve with a large enough effect in the signal ratio, with a control signal flat (not every such curve was filed as active); inconclusive = small, poorly fitted or top-dose-only effect, or effect the other way, or a change in a side signal; inactive = flat fitted curve, though single readings scatter; the % refers to the signal ratio. A potency beside an inconclusive call is a rough fit, not a confirmed value.

Assay: qHTS Assay for Lipid Storage Modulators in Drosophila S3 Cells
Conditions: BODIPY lipid droplet fluorescence, 18-24 h, cells fed with added oleic acid; lipid storage change, negative = inhibition: at 46.1 µM (top of the series) unless noted
Summary of the method: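 Drosophila S3 cells loaded with oleic acid (400 uM, as added) and compounds at several concentrations; lipid droplets imaged by 488-nm laser-scanning cytometry, 500–530 nm intensity and object ratio to cell channel. Percent activity normalized to 20 uM Triacsin C.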
% is scaled to controls: 0 for no effect and ±100 for the full control effect; potency is read from the fitted curve at half-maximal effect.

| Structure (SMILES) | lipid storage change, negative = inhibition | Potency |
| --- | --- | --- |
| COc1ccc(C(=O)NCc2nnc(SCC(=O)Nc3nnc(C)s3)o2)cc1 | inconclusive: -40.2% [at 9.22 µM] | – |
| CN(c1cccc(NC(=O)c2ccccc2N(C)S(=O)(=O)c2ccccc2)c1)S(C)(=O)=O | inconclusive: -26.1% | – |
| CCOC(=O)/C(C#N)=C/c1cccc([N+](=O)[O-])c1 | inconclusive: 9.39% | – |
| CC(=O)NC(c1ccco1)c1cc(Br)c2cccnc2c1O (stereo not given) | inconclusive: 9.91% | – |
| COc1c(Cl)cc(Cl)cc1C(=O)Nc1ccc(CN2CCOCC2)cc1 | inconclusive: -26.6% | – |
| CC(C)(C)C(=O)NC1CCN(C(=O)N2CCCC2)CC1 | inconclusive: -30.3% | – |
| O=C(NC(=S)N1CCN(c2nc(-c3ccccc3)cs2)CC1)c1cccnc1 | inconclusive: 39.8% | – |
| CCCCC(=O)c1c(O)c2ccccc2oc1=O | inconclusive: 33.4% | – |
| CC/C(=N\N=C1\SC(C)C(=O)N1Cc1ccco1)c1ccccc1 (stereo not given) | – | inconclusive: 2.06 µM [activator, partial curve] |
| O=C(Cn1cncn1)NCc1cccc(OC(F)F)c1 | inconclusive: 0.715% | – |
| COCCn1nnnc1CN1CCC(NC(=O)c2ccc(Br)cc2)CC1 | inconclusive: 7.16% | – |
| COc1cc(C(=O)NCCC(=O)NC(C)C)cc(OC)c1OC | inconclusive: 14.2% | – |
| Cc1ccc(C)c(C(=O)COC(=O)CNS(=O)(=O)c2ccccc2)c1 | inconclusive: 36.5% | – |
| CCOC(=O)C1CCN(c2nc3ccccc3nc2C(C#N)C(=O)OCCOC)CC1 (stereo not given) | inconclusive: -3.97% | – |
| COCc1c(C(=O)NC(C)c2ccc(S(N)(=O)=O)cc2)oc2ccccc12 (stereo not given) | inconclusive: 83.7% | – |
| Cc1cc(N2CCCC2=O)ccc1S(=O)(=O)NC1CCCCC1 | inconclusive: -74.7% | – |
| CCCCC(CC)CNC(=O)C1CC=CCC1C(=O)O (stereo not given) | – | inconclusive: 18.4 µM [activator, single point] |
| CC(C)(C)c1ccc(C(=O)Nc2ccccc2C(=O)NCCN2CCOCC2)cc1 | inconclusive: 12% | – |
| CCCCOc1ccc(C(=O)N2CCNC(=O)C2CC(=O)OC(C)C)cc1 (stereo not given) | inactive | – |
| O=C(/C=C/c1ccccc1)NC(=S)NNC(=O)c1cnccn1 | inconclusive: 39.4% | – |
| CCCCN(C)CCn1c(=S)[nH]c2ncccc2c1=O | inconclusive: -43.4% | – |
| Cn1c(=O)c2c(ncn2CC(=O)Nc2ccccc2N2CCOCC2)n(C)c1=O | inconclusive: -11.7% | – |
| COC(=O)/C=C/C(=O)Nc1ccc(O)c(Cl)c1 | inconclusive: -17.3% | – |
| CC1(C)CC(NC(=O)COc2ccc3ccc(=O)oc3c2)CC(C)(C)N1 | – | inconclusive: 29.1 µM [activator, single point] |
| CC(=O)Nc1ccccc1C(=O)C(=O)Nc1cccc(C(=O)N2CC(C)CC(C)C2)c1 (stereo not given) | inconclusive: 70.2% | – |
| Cn1c(COc2ccc(F)cc2)nc2ccccc21 | inconclusive: -100% | – |
| CCOC(=O)CSc1nc2cc(S(=O)(=O)N3CCOCC3)ccc2n1CC | – | inconclusive: 29.1 µM [activator, partial curve, poor fit] |

Structural class: the entries above with an aryl thioether with sulfur outside any ring (2)

| Structure (SMILES) | lipid storage change, negative = inhibition | Potency |
| --- | --- | --- |
| COc1ccc(C(=O)NCc2nnc(SCC(=O)Nc3nnc(C)s3)o2)cc1 | inconclusive: -40.2% [at 9.22 µM] | – |
| CCOC(=O)CSc1nc2cc(S(=O)(=O)N3CCOCC3)ccc2n1CC | – | inconclusive: 29.1 µM [activator, partial curve, poor fit] |

Next structures follow.

| Structure (SMILES) | lipid storage change, negative = inhibition | Potency |
| --- | --- | --- |
| Cc1[nH]c2ccccc2c1C(=O)CN1CCN(C/C=C/c2ccccc2)CC1 | inconclusive: -17.4% | – |
| COc1ccc(/C=N/NC(=O)CCn2cnc(-c3ccccc3)c2-c2ccccc2)cc1 | inconclusive: 49.5% | – |
| O=C(O)C1CCN(S(=O)(=O)c2cccs2)CC1 | – | inconclusive: 0.0052 µM [activator, full curve, poor fit] |
| Cn1c(NCCc2ccccc2)cc(=O)n(C)c1=O | – | inconclusive: 32.6 µM [falling, single point] |
| O=C(COc1cc2oc(=O)c3c(c2cc1Cl)CCC3)Nc1ccccn1 | – | inconclusive: 29.1 µM [falling, single point] |
| Cc1cc(N2CCCCC2)nc2c(C)cccc12 | inactive | – |
| COc1ccc(NC(=O)C2CCN(S(=O)(=O)c3cccs3)CC2)cc1OC | – | inconclusive: 0.291 µM [falling, full curve] |
| C=CCn1nnnc1-c1cccc(Cl)c1 | inconclusive: 24% | – |
| CCc1nnc(NC(=O)CCC(=O)NC2CCCc3ccccc32)s1 (stereo not given) | inconclusive: -15% | – |
| C1CCCCCC(=NNc2nn[nH]n2)CCCCC1 | – | inconclusive: 6.51 µM [activator, single point] |
| O=C(NC(c1ccccc1)c1ccccc1)c1ccc(CO)cc1 | inconclusive: 83.5% | – |
| Cc1ccc(S(=O)(=O)NCC2CCC(C(=O)NCCCN3CCOCC3)CC2)cc1 (stereo not given) | inconclusive: -9.1% | – |
| O=C(Nc1ccc2c(c1)OCCO2)C1CC(O)CN1C(=O)Nc1ccccc1 (stereo not given) | inconclusive: 96.4% | – |
| CC(C)[C@H](NC(=O)Nc1cccc(Br)c1)C(=O)O | – | inconclusive: 0.0052 µM [falling, full curve, poor fit] |
| c1ccc(Cn2nnc3cnccc32)cc1 | – | inconclusive: 18.4 µM [falling, single point] |
| CC1(C)Cc2c(c(N3CCOCC3)nc3sc(C(N)=O)c(N)c23)CO1 | inconclusive: 10.7% | – |
| CCOc1ccc(C(=O)/C=C/c2cc(OC)c(OC)c(OC)c2)cc1 | inconclusive: -1.82% | – |
| CCOc1ccc2ccccc2c1/C=N\NC(=O)c1ccc([N+](=O)[O-])cc1 | – | active: 6.51 µM |
| NC(=O)c1ccc(Cl)c2ccccc12 | – | inconclusive: 3.66 µM [activator, single point] |
| Cc1nc(N)sc1-c1csc(Nc2ccc(S(N)(=O)=O)cc2)n1 | inconclusive: 56% | – |
| COC(=O)c1nc(NC(=S)NC(=O)c2cccs2)sc1C | – | inconclusive: 6.51 µM [falling, single point] |
| CC(C)C(NC(=O)C1CCC(C(C)(C)C)CC1)C(=O)NCc1cccnc1 (stereo not given) | – | inconclusive: 6.51 µM [activator, single point] |
| CC(=O)N1c2ccc(S(=O)(=O)N3CCCC3)cc2CC1C(=O)NCc1ccccc1F (stereo not given) | inconclusive: 102% | – |
| CC1(C(=O)NCc2cccnc2)CCC(=O)N1CCc1ccccc1 (stereo not given) | inconclusive: 11% | – |
| O=C(NOCc1ccccc1)c1ccc(Cl)cc1 | inconclusive: 3.54% | – |
| O=C(CSc1nnc(-c2ccccc2Br)o1)N1CCOCC1 | inconclusive: 146% | – |
| O=C(CCC(=O)Nc1ccc(F)cc1)N/N=C/c1ccc(Br)cc1 | – | inconclusive: 6.51 µM [activator, single point] |

| Structure (SMILES) | lipid storage change, negative = inhibition | Potency |
| --- | --- | --- |
| COC(=O)c1cccc(NC(=O)C(C)(C)C)c1 | inactive | – |
| O=C(Nc1cc(Sc2nc3ccccc3s2)cc([N+](=O)[O-])c1)c1cccc(F)c1F | – | inconclusive: 8.2 µM [activator, partial curve] |
| CC1CCCC(NC(=O)C2CC(=O)N(Cc3ccccc3)C2)C1C (stereo not given) | – | inconclusive: 0.13 µM [falling, full curve, poor fit] |
| C=CCNC(=O)c1ccccc1NC(=O)Nc1ccccc1 | – | inconclusive: 4.11 µM [activator, partial curve] |
| Cc1cc(-c2ccc(N3C(=O)CCC3=O)c(C)c2)ccc1N1C(=O)CCC1=O | inconclusive: -35.7% | – |
| CCNc1ccc(N=Nc2c(C)n(C)n(-c3ccccc3)c2=O)cc1 | inconclusive: -29% | – |
| CCOC(=O)Nc1ccc2c(CN3CCN(S(=O)(=O)c4ccccc4)CC3)cc(=O)oc2c1 | inactive | – |
| CCn1nc(C)cc1C(=O)Sc1cccc(Br)c1 | inconclusive: -23.8% | – |
| COc1ccc(-c2csc(NC(=O)C3CSC4(C)CCC(=O)N34)n2)c(OC)c1 (stereo not given) | inconclusive: 28.6% | – |
| COc1cc2c(cc1OC)CN(C(=O)c1ccccc1C(=O)O)CC2 | inconclusive: -14% | – |
| Cc1cccc(NC(=O)c2cc(=O)c3ccccc3o2)n1 | – | inconclusive: 20.6 µM [falling, single point] |
| COc1ccc(S(=O)(=O)N2CCCCC2)cc1NC(=O)COc1ccccc1 | – | inconclusive: 3.26 µM [activator, full curve] |
| NC(=S)c1c(Cl)cc(C(F)(F)F)cc1Cl | – | inconclusive: 1.46 µM [falling, partial curve, poor fit] |
| CC(=O)c1c(C)[nH]c(C(=O)Nc2cccc(C)c2C)c1C | – | inconclusive: 29.1 µM [activator, single point] |
| NS(=O)(=O)c1ccc(CCNC(=O)COC(=O)COc2cccc(C(F)(F)F)c2)cc1 | inconclusive: 10.5% | – |
| COc1ccc(NC(=O)c2c3c(nc4ccccc24)CCC3)cc1S(=O)(=O)N1CCOCC1 | inconclusive: 20.4% | – |
| CN1CCN(S(=O)(=O)c2ccc(NC(=O)C3CCCCC3)cc2)CC1 | inconclusive: 0.74% | – |
| Cc1cccc(OCC(=O)Nc2ccc3c(c2)C(=O)NC3=O)c1 | – | inconclusive: 29.1 µM [falling, single point] |
| COc1cc(-c2cc(-c3ccc(N)cc3)[nH]c(=O)c2C#N)cc(OC)c1OC | inactive | – |
| Cc1ccc(SC(C)C(=O)Nc2ccccc2C(=O)N2CCOCC2)cc1 (stereo not given) | inconclusive: -29.8% | – |
| O=C(CCCN1C(=O)/C(=C/c2cccs2)SC1=S)NNC(=O)c1cccnc1 | inconclusive: 19.3% | – |
| CCOCCCNC(=O)/C(C#N)=C/c1ccc(-c2ccc(S(=O)(=O)N3CCOCC3)cc2)o1 | inconclusive: 17.9% | – |
| CN=c1scc(-c2ccccc2Br)n1/N=C/c1ccc[nH]1 | inconclusive: 22% | – |
| COCC1CCN(C(=O)c2oc3c(F)cccc3c2C)C1 (stereo not given) | – | inconclusive: 6.51 µM [falling, single point] |
| COCC(C)N1CCC(n2nccc2NC(=O)CCCc2ccccc2)CC1 (stereo not given) | inconclusive: 338% | – |
| COc1cccc(CNC2CCCCCCC2)c1OC | inconclusive: 11.9% | – |
